Source: article PMC4808023
No constants are given. Whether binding was seen depends on the method and setting. Binding can be weak; no strength is given. For some assays here: Binding seen in cells or lysates may run through a third protein.

Sequences of proteins named here, by UniProt entry; tags and fusion partners are left off. A change or cut given only in a name is not applied to a line headed by its entry. A line that says so, or that is headed by a name, gives the form on record, which may keep a tag or linker. Residues count along the entry.
SET 76-277-DDK (Q01105, residues 89-290): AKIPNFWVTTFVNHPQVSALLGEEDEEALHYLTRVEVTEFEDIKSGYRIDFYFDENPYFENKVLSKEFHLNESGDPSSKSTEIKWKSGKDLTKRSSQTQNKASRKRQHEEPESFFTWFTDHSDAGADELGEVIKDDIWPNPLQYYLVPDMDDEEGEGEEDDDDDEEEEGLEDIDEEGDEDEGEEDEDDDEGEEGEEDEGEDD
recombinant truncated SET protein SET 1-127 (Q01105-2, form named): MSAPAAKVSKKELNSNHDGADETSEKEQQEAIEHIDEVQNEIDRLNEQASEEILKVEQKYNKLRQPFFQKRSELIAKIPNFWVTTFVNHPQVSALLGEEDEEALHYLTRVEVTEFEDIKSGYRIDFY
recombinant truncated SET protein SET 1-177 (Q01105-2, form named): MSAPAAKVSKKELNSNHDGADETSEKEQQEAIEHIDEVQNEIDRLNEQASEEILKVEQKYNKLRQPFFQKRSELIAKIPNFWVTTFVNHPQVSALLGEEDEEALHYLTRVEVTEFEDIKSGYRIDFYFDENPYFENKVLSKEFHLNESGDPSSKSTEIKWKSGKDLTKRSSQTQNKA
recombinant truncated SET protein SET 1-227 (Q01105-2, form named): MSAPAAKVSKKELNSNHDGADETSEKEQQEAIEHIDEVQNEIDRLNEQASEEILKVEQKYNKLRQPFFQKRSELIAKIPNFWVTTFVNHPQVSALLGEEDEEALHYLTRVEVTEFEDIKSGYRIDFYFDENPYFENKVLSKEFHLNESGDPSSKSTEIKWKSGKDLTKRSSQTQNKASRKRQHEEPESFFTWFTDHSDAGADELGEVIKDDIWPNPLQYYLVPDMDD
full-length SET-DDK (Q01105-2, form named): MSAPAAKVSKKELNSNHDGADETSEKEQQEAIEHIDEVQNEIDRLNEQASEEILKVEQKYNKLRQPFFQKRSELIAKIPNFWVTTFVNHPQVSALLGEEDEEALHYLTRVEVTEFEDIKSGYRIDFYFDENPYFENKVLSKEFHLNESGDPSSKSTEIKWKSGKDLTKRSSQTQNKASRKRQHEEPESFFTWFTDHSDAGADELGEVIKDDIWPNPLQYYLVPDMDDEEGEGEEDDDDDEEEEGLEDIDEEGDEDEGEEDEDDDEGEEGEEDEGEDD
UniProt P67775: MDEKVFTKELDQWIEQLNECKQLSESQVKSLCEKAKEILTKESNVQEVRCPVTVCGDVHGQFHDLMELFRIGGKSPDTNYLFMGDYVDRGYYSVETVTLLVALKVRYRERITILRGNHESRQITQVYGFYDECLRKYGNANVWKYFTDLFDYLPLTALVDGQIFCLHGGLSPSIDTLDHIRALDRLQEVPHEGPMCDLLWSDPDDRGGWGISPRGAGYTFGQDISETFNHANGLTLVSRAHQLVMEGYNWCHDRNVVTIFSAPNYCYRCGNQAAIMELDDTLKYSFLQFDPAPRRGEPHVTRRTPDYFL

Key:
SET 1-127-DDK (human) = SET 1-127-DDK (human) (UniProt Q01105); assay: co-IP; A549 cells transiently transfected with DDK-tagged full-length or truncated SET, with or without EMQA 5 uM; endogenous PP2Ac
SET 1-177-DDK (human) = SET 1-177-DDK (human) (UniProt Q01105); assay: as above
SET 1-227-DDK (human) = SET 1-227-DDK (human) (UniProt Q01105); assay: as above
SET 76-277-DDK (human) = SET 76-277-DDK (human) (UniProt Q01105); assay: as above
[1] = molecular target: full-length SET-DDK (human) (UniProt Q01105); assay: as above
[2] = molecular target: PP2Ac-GST recombinant protein (UniProt P67775); assay: SPR; BIAcore T200; PP2Ac-GST held on a CM5 chip pre-coated with GST-capture antibodies; mixtures of full-length and truncated SET in the indicated proportions injected in a fixed dose of EMQA; both purified

For “PP2A-catalytic subunit (from UniProt P67775) (enzyme)”, which binding (SET 1-127-DDK (human)) is on record?
Its binding is “binds”.

And the binding (SET 1-177-DDK (human))?
Its binding is “binds”.

What about the binding (SET 1-227-DDK (human)) of the same substance?
Its binding is “binds”.

What about the binding (SET 76-277-DDK (human)) of the same substance?
Its binding is “binds”.

And the binding [1]?
Its binding is “binds”.

For “recombinant truncated SET protein SET 1-127 (from UniProt Q01105-2 1-127) (domain or fragment)”, which binding [2] is on record?
Its binding is “binds”.

“recombinant truncated SET protein SET 1-177 (from UniProt Q01105-2 1-177) (domain or fragment)” was tested. Which binding [2] did it give?
The binding was “binds”.

How did the binding [2] turn out when “recombinant truncated SET protein SET 1-227 (from UniProt Q01105-2 1-227) (domain or fragment)” was run?
The binding was “binds”.
